Source: the supplement of paper PMC6078165
The reference is the same well before dosing, and untreated signal decays as well.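 Fibroblast labels name human fibroblasts: mostly primary ones from tissues such as uterus (C12385, HUF), lung (H6013), bone (Hs27A), adrenal (HADF) and skin (WS1), plus mammary HMF and breast cancer-associated Hs343T. The cancer cells are basal-like or mesenchymal-like triple-negative breast cancer lines. The paper calls a changed response a hit when it shifts by more than 3x the replicate standard deviation. The tissue of the other fibroblasts is not given here.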

Test system: BT20
Assay: relative JC-1 red fluorescence (viability) vs pre-drug, coculture with fibroblast (fraction); higher = more viable cancer cells
Procedure: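 JC-1 labelled TNBC cells cocultured 1:1 (1,500 cells each) with CellTrace Violet stained primary or stromal fibroblasts in 384-well plates in FluoroBrite medium, treated with one of 42 anticancer drugs at 0.1, 1, 10 or 100 uM. JC-1 red fluorescence (mitochondrial integrity in cancer cells only) was read by plate reader every 8 h for 72 h. Values are normalised to each well's pre-drug value. The stock of one drug was tenfold lower, so its dose labels may be too high.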

CO[C@H]1C[C@@H]2CC[C@@H](C)[C@@](O)(O2)C(=O)C(=O)N2CCCC[C@H]2C(=O)O[C@H]([C@H](C)C[C@@H]2CC[C@@H](O)[C@H](OC)C2)CC(=O)[C@H](C)/C=C(\C)[C@@H](O)[C@@H](OC)C(=O)[C@H](C)C[C@H](C)/C=C/C=C/C=C/1C [Rapamycin]
relative JC-1 red fluorescence
Details | 8 h | 16 h | 24 h | 32 h | 40 h | 48 h | 56 h | 64 h | 72 h
0.1 µM, coculture fibroblast: C12385 | 0.9017 | 0.816 | 0.734 | 0.67 | 0.605 | 0.572 | 0.534 | 0.511 | 0.493
0.1 µM, coculture fibroblast: H6013 | 0.9149 | 0.866 | 0.8273 | 0.797 | 0.76 | 0.743 | 0.748 | 0.733 | 0.722
0.1 µM, coculture fibroblast: H6019 | 0.843 | 0.774 | 0.746 | 0.694 | 0.657 | 0.645 | 0.623 | 0.615 | 0.605
0.1 µM, coculture fibroblast: H6076 | 0.9871 | 0.89795 | 0.8284 | 0.7957 | 0.7697 | 0.7397 | 0.7361 | 0.728 | 0.712
0.1 µM, coculture fibroblast: H6231 | 0.784 | 0.948 | 0.84 | 0.7749 | 0.7171 | 0.6623 | 0.6331 | 0.601 | 0.569
0.1 µM, coculture fibroblast: HADF | 0.894 | 0.9001 | 0.86031 | 0.8382 | 0.8157 | 0.77 | 0.7584 | 0.7486 | 0.722
0.1 µM, coculture fibroblast: HCFa | 0.9188 | 0.882 | 0.869 | 0.823 | 0.803 | 0.788 | 0.78 | 0.766 | 0.745
0.1 µM, coculture fibroblast: HCPF | 0.855 | 0.916 | 0.842 | 0.7708 | 0.722 | 0.676 | 0.639 | 0.626 | 0.601
0.1 µM, coculture fibroblast: HHSteC | 0.9375 | 0.874 | 0.854 | 0.787 | 0.747 | 0.732 | 0.727 | 0.72 | 0.705
0.1 µM, coculture fibroblast: HMF | 0.899 | 0.933 | 0.843 | 0.794 | 0.756 | 0.718 | 0.678 | 0.657 | 0.632
0.1 µM, coculture fibroblast: HPFa | 0.9385 | 0.8307 | 0.8169 | 0.7461 | 0.7171 | 0.677 | 0.657 | 0.634 | 0.598
0.1 µM, coculture fibroblast: HUF | 0.9 | 0.812 | 0.778 | 0.699 | 0.656 | 0.625 | 0.604 | 0.587 | 0.566
0.1 µM, coculture fibroblast: Hs5 | 0.925 | 0.93 | 0.854 | 0.79 | 0.744 | 0.712 | 0.686 | 0.65 | 0.622
0.1 µM, coculture fibroblast: Hs27A | 0.717 | 0.925 | 0.901 | 0.792 | 0.778 | 0.884 | 0.878 | 0.862 | 0.828
0.1 µM, coculture fibroblast: Hs343T | 0.963 | 0.881 | 0.802 | 0.76 | 0.729 | 0.686 | 0.664 | 0.655 | 0.642
0.1 µM, coculture fibroblast: WS1 | 0.841 | 0.767 | 0.712 | 0.647 | 0.589 | 0.558 | 0.523 | 0.5 | 0.494
1 µM, coculture fibroblast: C12385 | 0.869 | 0.8214 | 0.7765 | 0.723 | 0.672 | 0.641 | 0.62 | 0.606 | 0.597
1 µM, coculture fibroblast: H6013 | 0.856 | 0.918 | 0.839 | 0.811 | 0.768 | 0.847 | 0.755 | 0.834 | 0.8118
1 µM, coculture fibroblast: H6019 | 0.847 | 0.809 | 0.785 | 0.731 | 0.689 | 0.679 | 0.655 | 0.642 | 0.639
1 µM, coculture fibroblast: H6076 | 0.892 | 0.928 | 0.849 | 0.831 | 0.798 | 0.77584 | 0.758 | 0.758 | 0.746
1 µM, coculture fibroblast: H6231 | 0.816 | 0.92 | 0.872 | 0.8205 | 0.774 | 0.733 | 0.695 | 0.673 | 0.662
1 µM, coculture fibroblast: HADF | 0.8164 | 0.961 | 0.913 | 0.896 | 0.895 | 0.862 | 0.858 | 0.855 | 0.844
1 µM, coculture fibroblast: HCFa | 0.9354 | 0.909 | 0.9 | 0.863 | 0.834 | 0.81 | 0.792 | 0.782 | 0.758
1 µM, coculture fibroblast: HCPF | 0.797 | 0.954 | 0.872 | 0.81 | 0.771 | 0.719 | 0.681 | 0.664 | 0.641
1 µM, coculture fibroblast: HHSteC | 0.941 | 0.925 | 0.91 | 0.861 | 0.825 | 0.799 | 0.78 | 0.763 | 0.743
1 µM, coculture fibroblast: HMF | 0.909 | 0.916 | 0.827 | 0.774 | 0.749 | 0.703 | 0.69 | 0.663 | 0.644
1 µM, coculture fibroblast: HPFa | 0.932 | 0.92 | 0.926 | 0.874 | 0.85 | 0.815 | 0.798 | 0.783 | 0.756
1 µM, coculture fibroblast: HUF | 0.859 | 0.818 | 0.812 | 0.743 | 0.701 | 0.673 | 0.658 | 0.649 | 0.634
1 µM, coculture fibroblast: Hs5 | 0.783 | 0.98 | 0.8902 | 0.8273 | 0.7763 | 0.725 | 0.687 | 0.659 | 0.635
1 µM, coculture fibroblast: Hs27A | 0.9226 | 0.839 | 0.928 | 0.942 | 0.909 | 0.896 | 0.882 | 0.865 | 0.832
1 µM, coculture fibroblast: Hs343T | 0.95 | 0.908 | 0.829 | 0.777 | 0.738 | 0.707 | 0.678 | 0.668 | 0.645
1 µM, coculture fibroblast: WS1 | 0.877 | 0.836 | 0.791 | 0.73 | 0.688 | 0.656 | 0.63 | 0.605 | 0.6
